Results published in the supplement of paper PMC10849652.
This is one part of the list.

Amino acid sequences for entries named in this document (tags omitted). A change or cut given only in a name is not applied to a line headed by its entry.
UniProt Q92547, whole entry, looked up: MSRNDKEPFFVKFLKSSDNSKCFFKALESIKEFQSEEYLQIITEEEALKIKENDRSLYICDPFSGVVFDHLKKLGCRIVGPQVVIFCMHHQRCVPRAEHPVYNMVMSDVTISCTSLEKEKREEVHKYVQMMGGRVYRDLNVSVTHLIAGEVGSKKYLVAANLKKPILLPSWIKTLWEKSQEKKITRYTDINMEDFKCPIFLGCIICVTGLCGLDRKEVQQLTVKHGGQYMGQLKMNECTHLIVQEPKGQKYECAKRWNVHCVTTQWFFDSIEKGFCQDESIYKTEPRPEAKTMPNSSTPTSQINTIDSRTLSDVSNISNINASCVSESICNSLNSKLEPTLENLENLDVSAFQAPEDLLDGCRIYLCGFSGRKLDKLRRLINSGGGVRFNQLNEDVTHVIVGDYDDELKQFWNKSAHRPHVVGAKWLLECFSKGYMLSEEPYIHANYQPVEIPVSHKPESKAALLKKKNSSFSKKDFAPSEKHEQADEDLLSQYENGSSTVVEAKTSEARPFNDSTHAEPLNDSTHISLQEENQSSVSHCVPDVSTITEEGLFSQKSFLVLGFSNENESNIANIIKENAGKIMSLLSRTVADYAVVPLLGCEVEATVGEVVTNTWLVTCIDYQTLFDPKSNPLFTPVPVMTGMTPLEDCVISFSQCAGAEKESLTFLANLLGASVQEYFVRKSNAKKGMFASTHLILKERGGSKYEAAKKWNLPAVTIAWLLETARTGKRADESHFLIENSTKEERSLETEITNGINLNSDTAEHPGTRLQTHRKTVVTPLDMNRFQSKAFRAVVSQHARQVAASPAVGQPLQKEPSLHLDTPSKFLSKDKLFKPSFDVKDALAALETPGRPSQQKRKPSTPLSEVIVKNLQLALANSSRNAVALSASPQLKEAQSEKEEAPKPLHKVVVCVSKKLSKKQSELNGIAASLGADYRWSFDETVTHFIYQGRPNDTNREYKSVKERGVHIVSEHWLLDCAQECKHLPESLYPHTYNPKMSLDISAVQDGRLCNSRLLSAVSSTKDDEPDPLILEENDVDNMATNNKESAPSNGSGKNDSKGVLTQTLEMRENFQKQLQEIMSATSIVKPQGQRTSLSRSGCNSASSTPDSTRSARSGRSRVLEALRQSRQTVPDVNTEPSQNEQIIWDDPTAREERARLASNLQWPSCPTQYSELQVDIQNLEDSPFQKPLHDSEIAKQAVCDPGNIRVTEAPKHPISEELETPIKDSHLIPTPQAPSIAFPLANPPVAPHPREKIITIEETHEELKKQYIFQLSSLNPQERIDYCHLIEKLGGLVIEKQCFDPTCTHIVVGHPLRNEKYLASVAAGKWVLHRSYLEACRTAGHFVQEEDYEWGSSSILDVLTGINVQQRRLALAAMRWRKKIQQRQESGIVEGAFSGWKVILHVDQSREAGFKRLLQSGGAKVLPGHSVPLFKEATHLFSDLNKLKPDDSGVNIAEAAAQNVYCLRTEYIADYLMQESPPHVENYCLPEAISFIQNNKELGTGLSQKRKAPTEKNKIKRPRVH
UniProt Q0P6H9: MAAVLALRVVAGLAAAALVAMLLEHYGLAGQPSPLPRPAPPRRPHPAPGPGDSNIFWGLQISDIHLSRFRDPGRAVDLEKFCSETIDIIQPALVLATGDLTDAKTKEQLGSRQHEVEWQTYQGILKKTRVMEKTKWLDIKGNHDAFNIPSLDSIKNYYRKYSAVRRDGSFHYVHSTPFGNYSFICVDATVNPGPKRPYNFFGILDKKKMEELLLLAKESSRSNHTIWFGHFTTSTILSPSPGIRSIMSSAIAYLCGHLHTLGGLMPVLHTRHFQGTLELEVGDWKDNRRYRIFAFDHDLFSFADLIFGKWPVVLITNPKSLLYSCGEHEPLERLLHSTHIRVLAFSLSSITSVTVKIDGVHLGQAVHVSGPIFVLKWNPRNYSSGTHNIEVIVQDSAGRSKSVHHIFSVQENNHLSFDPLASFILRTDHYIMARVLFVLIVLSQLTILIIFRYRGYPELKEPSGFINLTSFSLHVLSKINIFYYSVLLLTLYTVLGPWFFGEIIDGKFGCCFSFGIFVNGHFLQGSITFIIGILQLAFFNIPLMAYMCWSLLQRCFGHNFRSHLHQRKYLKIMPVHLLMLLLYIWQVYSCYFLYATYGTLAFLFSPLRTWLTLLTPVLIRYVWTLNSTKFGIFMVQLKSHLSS
UniProt Q9Y320, whole entry, looked up: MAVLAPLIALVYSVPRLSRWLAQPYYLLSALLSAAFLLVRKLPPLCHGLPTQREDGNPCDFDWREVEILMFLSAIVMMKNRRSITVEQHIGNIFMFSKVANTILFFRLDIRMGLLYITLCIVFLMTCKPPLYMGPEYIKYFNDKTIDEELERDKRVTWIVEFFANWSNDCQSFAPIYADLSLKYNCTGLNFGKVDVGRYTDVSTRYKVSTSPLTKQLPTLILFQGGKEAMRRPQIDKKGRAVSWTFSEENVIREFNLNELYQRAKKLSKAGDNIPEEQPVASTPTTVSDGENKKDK
UniProt Q8N4H5: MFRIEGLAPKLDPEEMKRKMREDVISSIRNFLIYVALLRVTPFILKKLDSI
UniProt Q9C0C2: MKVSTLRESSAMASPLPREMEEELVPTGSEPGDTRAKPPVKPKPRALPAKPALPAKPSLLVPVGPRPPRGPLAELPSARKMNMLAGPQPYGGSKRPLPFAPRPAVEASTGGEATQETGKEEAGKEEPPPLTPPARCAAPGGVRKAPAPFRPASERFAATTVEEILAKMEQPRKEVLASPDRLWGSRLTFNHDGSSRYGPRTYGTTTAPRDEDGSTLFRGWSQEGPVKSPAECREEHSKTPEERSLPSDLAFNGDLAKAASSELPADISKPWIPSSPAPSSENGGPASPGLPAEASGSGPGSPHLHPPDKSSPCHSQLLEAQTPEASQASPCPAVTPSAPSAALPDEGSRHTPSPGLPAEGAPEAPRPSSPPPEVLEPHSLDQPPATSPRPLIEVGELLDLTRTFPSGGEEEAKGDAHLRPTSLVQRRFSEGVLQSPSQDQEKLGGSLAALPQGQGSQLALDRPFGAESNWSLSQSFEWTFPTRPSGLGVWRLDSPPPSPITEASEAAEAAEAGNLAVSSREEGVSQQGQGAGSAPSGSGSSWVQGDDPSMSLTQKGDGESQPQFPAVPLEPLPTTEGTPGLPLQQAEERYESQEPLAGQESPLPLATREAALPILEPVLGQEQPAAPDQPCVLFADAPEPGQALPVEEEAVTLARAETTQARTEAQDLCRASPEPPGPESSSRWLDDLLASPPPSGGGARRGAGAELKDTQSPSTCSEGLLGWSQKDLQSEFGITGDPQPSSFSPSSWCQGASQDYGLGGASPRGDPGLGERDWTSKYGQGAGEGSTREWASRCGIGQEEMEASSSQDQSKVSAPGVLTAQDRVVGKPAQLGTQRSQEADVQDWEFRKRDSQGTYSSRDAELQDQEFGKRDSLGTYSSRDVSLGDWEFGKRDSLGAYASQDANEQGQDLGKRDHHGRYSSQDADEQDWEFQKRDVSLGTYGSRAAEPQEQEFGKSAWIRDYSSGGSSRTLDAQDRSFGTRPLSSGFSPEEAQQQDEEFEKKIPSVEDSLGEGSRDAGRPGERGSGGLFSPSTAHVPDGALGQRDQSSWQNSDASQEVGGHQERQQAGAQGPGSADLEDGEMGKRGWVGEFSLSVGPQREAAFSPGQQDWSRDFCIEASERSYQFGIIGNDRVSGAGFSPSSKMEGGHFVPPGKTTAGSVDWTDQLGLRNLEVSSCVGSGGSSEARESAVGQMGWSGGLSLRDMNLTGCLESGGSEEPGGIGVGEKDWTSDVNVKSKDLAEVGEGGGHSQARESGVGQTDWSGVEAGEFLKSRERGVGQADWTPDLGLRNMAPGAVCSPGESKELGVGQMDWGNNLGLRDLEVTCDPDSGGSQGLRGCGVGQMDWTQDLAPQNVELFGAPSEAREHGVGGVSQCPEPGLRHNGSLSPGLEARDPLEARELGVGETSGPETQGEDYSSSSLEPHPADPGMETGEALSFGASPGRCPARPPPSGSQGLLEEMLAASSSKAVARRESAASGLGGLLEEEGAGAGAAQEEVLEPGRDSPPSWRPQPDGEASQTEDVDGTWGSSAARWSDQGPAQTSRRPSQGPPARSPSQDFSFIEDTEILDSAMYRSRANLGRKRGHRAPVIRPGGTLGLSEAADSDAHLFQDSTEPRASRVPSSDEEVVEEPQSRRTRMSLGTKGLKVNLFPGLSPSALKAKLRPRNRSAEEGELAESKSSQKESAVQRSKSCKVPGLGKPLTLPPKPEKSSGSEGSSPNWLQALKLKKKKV
UniProt Q9NXH8: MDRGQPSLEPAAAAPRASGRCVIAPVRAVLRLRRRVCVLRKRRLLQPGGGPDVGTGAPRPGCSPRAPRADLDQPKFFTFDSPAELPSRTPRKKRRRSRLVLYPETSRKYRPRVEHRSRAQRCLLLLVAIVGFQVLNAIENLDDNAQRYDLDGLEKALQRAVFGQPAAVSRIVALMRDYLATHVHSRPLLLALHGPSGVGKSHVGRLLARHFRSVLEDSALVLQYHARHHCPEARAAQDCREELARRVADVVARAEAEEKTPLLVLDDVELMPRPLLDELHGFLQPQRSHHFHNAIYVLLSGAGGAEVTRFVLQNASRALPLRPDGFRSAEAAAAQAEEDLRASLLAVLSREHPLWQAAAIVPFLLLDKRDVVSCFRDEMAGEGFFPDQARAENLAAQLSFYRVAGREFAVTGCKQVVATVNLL
UniProt Q15388, whole entry, looked up: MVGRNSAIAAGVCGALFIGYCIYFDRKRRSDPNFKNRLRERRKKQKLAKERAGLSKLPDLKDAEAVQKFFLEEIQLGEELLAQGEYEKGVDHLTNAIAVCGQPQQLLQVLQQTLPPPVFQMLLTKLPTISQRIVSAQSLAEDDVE
UniProt O94886: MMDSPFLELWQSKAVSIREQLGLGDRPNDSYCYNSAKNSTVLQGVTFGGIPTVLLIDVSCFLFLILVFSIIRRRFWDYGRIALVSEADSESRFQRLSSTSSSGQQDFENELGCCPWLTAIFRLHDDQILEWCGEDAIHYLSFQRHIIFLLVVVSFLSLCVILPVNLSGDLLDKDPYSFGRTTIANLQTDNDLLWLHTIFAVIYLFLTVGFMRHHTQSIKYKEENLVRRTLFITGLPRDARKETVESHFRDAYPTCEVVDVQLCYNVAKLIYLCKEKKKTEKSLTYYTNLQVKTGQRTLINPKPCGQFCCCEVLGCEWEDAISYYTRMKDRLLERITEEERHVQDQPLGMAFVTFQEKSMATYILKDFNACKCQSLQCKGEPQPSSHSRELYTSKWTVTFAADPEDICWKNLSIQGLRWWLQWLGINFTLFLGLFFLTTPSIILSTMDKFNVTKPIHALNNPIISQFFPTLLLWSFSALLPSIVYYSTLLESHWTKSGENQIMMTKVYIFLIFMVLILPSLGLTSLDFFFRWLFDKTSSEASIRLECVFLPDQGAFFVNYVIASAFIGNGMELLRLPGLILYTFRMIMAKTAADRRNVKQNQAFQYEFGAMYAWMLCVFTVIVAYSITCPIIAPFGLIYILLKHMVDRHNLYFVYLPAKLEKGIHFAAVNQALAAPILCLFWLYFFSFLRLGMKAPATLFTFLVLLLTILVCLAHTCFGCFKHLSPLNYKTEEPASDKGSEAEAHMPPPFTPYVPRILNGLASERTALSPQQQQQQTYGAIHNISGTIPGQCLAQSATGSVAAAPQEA
UniProt Q9NVV0: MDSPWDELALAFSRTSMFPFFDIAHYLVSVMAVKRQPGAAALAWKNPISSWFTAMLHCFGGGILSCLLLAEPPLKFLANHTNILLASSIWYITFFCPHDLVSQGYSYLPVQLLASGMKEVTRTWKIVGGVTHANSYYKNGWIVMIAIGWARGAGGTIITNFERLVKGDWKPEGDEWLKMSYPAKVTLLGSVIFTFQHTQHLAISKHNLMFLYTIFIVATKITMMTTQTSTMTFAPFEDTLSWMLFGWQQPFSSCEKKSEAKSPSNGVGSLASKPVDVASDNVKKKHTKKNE
UniProt Q6ZVM7: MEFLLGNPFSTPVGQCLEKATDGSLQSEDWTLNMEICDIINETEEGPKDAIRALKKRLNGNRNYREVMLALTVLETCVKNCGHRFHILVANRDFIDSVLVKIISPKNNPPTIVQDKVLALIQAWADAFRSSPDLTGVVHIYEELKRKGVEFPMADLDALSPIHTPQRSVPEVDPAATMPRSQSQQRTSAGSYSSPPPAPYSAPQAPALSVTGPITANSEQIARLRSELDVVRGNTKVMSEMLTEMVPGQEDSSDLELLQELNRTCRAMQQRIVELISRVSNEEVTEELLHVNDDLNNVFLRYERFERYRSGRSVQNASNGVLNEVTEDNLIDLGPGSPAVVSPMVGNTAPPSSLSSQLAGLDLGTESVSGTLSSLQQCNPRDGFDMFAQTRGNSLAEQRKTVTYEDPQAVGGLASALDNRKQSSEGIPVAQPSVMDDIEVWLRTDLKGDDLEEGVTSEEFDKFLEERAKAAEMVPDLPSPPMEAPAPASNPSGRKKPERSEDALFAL

How the values were obtained:
Assay in all cases: log2 fold change, soluble protein after heating vs DMSO (PISA); higher = thermal stabilisation; K562 lysate, 10 uM; active = over 0.2 and 3.5 SD of the protein, either way, in both replicates (recomputed)
erlotinib = compound: C#Cc1cccc(Nc2ncnc3cc(OCCOC)c(OCCOC)cc23)c1 [erlotinib]
Summary of the method: (§1)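 Soluble protein was defined as the supernatant remaining after 21,000xg for 90 min, following pooling of heated aliquots and adjustment to 0.5% NP-40 at 4°C. Before that, crude K562 extract at 1 mg/mL protein in PBS pH 7.4 with 1 mM MgCl2 was treated with 10 μM compound for 30 min and heated for 3 min across 48°C-58°C. Quantification used TMTpro 16plex LC-MS/MS with channel sums equalised, and values are log-two fold changes in thermal stability relative to solvent controls from duplicates.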

[1] = compound: C/C(=N\NC(=O)C1=CC(=CC=C1)S(=O)(=O)N2CCOCC2)/C3=C(C=CC(=C3)Cl)O
Summary of the method: as §1

[2] = compound: C1=CC(=CC=C1C2=NC3=C(N2)C=C(C=C3)C(=O)N)OC4=CC=C(C=C4)Cl
Summary of the method: as §1

[3] = compound: C1=CC2=C(C=CC(=C2)/C=C\3/C(=O)NC(=NCC4=CC=CS4)S3)N=C1
Summary of the method: as §1

[4] = compound: C1=CC2=NC=CN=C2C=C1/C=C/3\C(=O)NC(=O)S3
Summary of the method: as §1

[5] = compound: C1=CC=C(C=C1)C2=NC(=C(N2)C3=CC=NC=C3)C4=CC(=C(C=C4)Cl)O
Summary of the method: as §1

[6] = compound: C1=CC=C2C(=C1)C3=NNC4=CC=CC(=C43)C2=O
Summary of the method: as §1

[7] = compound: C1CCN(C1)C(=O)NC2=CC=CC(=C2)NC3=NC=C(C(=N3)NCCC4=CN=CN4)Br
Summary of the method: as §1

[8] = compound: C1CN(CCC1(CC2=CC=C(C=C2)Cl)N)C3=NC=NC4=C3C=CN4
Summary of the method: as §1

IRAK-1-4 Inhibitor I = compound: C1COCCN1CCN2C3=CC=CC=C3N=C2NC(=O)C4=CC(=CC=C4)[N+](=O)[O-] [IRAK-1-4 Inhibitor I]
Summary of the method: as §1

ibrutinib = compound: C=CC(=O)N1CCC[C@@H](n2nc(-c3ccc(Oc4ccccc4)cc3)c3c(N)ncnc32)C1 [ibrutinib]
Summary of the method: as §1

[9] = compound: CC(=O)c1cnc2ccc(-c3cc(Cl)c(O)c(Cl)c3)nc2c1N[C@H]1CC[C@H](CN(C)C)CC1
Summary of the method: as §1

ralimetinib = compound: CC(C)(C)Cn1c(N)nc2ccc(-c3[nH]c(C(C)(C)C)nc3-c3ccc(F)cc3)nc21 [ralimetinib]
Summary of the method: as §1

[10] = compound: CC(C)(O)CC(=O)NCCn1ccc2ncnc(Nc3ccc(Oc4cccc(C(F)(F)F)c4)c(Cl)c3)c21
Summary of the method: as §1

[11] = compound: CC(C)C1=C2N=C(C=C(N2N=C1)NCC3=CC=CC=C3)NCCCCCCN
Summary of the method: as §1

[12] = compound: CC1=C(C(CC(=O)N1)C2=CC=C(C=C2)C(F)(F)F)C(=O)NC3=C(C=C4C(=C3)C=NN4)F
Summary of the method: as §1

[13] = compound: CC1=C(C2=C(C=C1)C(=O)C3=CC=CC=C3N2CCCN)C
Summary of the method: as §1

[14] = compound: CC1=C(C=C(C=C1)NC(=O)C2=CC(=CC=C2)C(C)(C)C#N)NC3=CC4=C(C=C3)N=CN(C4=O)C
Summary of the method: as §1

[15] = compound: CC1=C(C=C(C=C1)NC(=O)C2=CC(=CC=C2)N(C)C)NC(=O)C3=CC=C(C=C3)O
Summary of the method: as §1

[16] = compound: CC1=CC=C(C=C1)SC2=C3C=C(SC3=CN=C2)C(=O)N
Summary of the method: as §1

Measured: log2 fold change

TONSL (UniProt Q96HA7)
inactive: erlotinib -0.04 | [1] -0.022 | [2] 0.123 | [3] -0.018 | [4] 0.082 | [5] 0.011 | [6] 0.031 | [7] -0.07 | [8] 0.039 | IRAK-1-4 Inhibitor I -0.018 | ibrutinib -0.102 | [9] -0.066 | ralimetinib 0.011 | [10] 0.007 | [11] -0.137 | [12] 0.005 | [13] -0.007 | [14] -0.025 | [15] 0.052 | [16] -0.049

TOPBP1 (UniProt Q92547)
inactive: erlotinib 0.004 | [1] -0.056 | [2] -0.034 | [3] 0.018 | [4] 0.002 | [5] 0.003 | [6] -0.009 | [7] -0.134 | [8] 0.072 | IRAK-1-4 Inhibitor I -0.006 | ibrutinib 0.012 | [9] 0.003 | ralimetinib 0.011 | [10] 0.011 | [11] 0.006 | [12] -0.02 | [13] -0.01 | [14] -0.035 | [15] 0.041 | [16] 0.055

TMEM62 (UniProt Q0P6H9)
inactive: erlotinib -0.013 | [1] 0.057 | [2] 0.025 | [3] 0.003 | [4] 0.136 | [5] -0.019 | [6] 0.009 | [7] 0.008 | [8] 0.078 | IRAK-1-4 Inhibitor I 0.084 | ibrutinib 0.029 | [9] 0.065 | ralimetinib 0.03 | [10] -0.042 | [11] -0.005 | [12] 0.012 | [13] 0.016 | [14] -0.01 | [15] 0.006 | [16] 0.062

TOR1AIP2 (UniProt Q8NFQ8)
inactive: erlotinib -0.009 | [1] 0.029 | [2] -0.022 | [3] -0.009 | [4] -0.02 | [5] -0.018 | [6] -0.038 | [7] -0.01 | [8] 0.061 | IRAK-1-4 Inhibitor I -0.005 | ibrutinib 0.02 | [9] 0.046 | ralimetinib 0.002 | [10] 0.005 | [11] -0.017 | [12] -0.021 | [13] -0.007 | [14] 0.003 | [15] -0.013 | [16] 0.018

TMX2 (UniProt Q9Y320)
inactive: erlotinib -0.013 | [1] 0.001 | [2] -0.015 | [3] 0.041 | [4] 0.03 | [5] -0.037 | [6] 0.01 | [7] -0.026 | [8] -0.012 | IRAK-1-4 Inhibitor I 0.036 | ibrutinib 0.022 | [9] 0.014 | ralimetinib 0 | [10] -0.021 | [11] 0.012 | [12] -0.031 | [13] 0.02 | [14] 0.108 | [15] -0.015 | [16] -0.004

TOMM5 (UniProt Q8N4H5)
inactive: erlotinib -0.004 | [1] 0.122 | [2] 0.013 | [3] 0.112 | [4] 0.039 | [5] -0.16 | [6] 0.035 | [7] 0.221 | [8] 0.084 | IRAK-1-4 Inhibitor I -0.025 | ibrutinib -0.125 | [9] -0.05 | ralimetinib 0.051 | [10] -0.058 | [11] -0.02 | [12] 0.063 | [13] -0.096 | [14] -0.02 | [15] 0.078 | [16] -0.018

TNKS1BP1 (UniProt Q9C0C2)
inactive: erlotinib 0.005 | [1] -0.057 | [2] 0.025 | [3] 0.004 | [4] 0 | [5] 0.006 | [6] -0.032 | [7] 0.016 | [8] 0.016 | IRAK-1-4 Inhibitor I 0.01 | ibrutinib 0 | [9] 0.009 | ralimetinib 0.012 | [10] -0.028 | [11] -0.025 | [12] -0.004 | [13] -0.022 | [14] -0.002 | [15] 0.012 | [16] -0.032

TMF1 isoform 2 (UniProt P82094)
inactive: erlotinib 0.021 | [1] -0.053 | [2] 0.045 | [3] 0.029 | [4] 0.016 | [5] -0.022 | [6] -0.048 | [7] -0.013 | [8] -0.016 | IRAK-1-4 Inhibitor I 0.028 | ibrutinib 0.024 | [9] 0.005 | ralimetinib 0.004 | [10] 0.016 | [11] 0.013 | [12] -0.071 | [13] -0.012 | [14] 0.029 | [15] -0.007 | [16] -0.03

TOR4A (UniProt Q9NXH8)
inactive: erlotinib 0.02 | [1] -0.097 | [2] -0.06 | [3] 0.016 | [4] -0.013 | [5] -0.006 | [6] 0.04 | [7] 0.033 | [8] 0.034 | IRAK-1-4 Inhibitor I -0.012 | ibrutinib 0.004 | [9] -0.095 | ralimetinib 0.014 | [10] -0.025 | [11] -0.005 | [12] -0.008 | [13] -0.056 | [14] -0.005 | [15] 0.049 | [16] 0.002

TOMM20 (UniProt Q15388)
inactive: erlotinib -0.009 | [1] 0.029 | [2] -0.112 | [3] 0.003 | [4] -0.038 | [5] -0.011 | [6] 0.049 | [7] -0.007 | [8] -0.006 | IRAK-1-4 Inhibitor I 0 | ibrutinib -0.039 | [9] -0.013 | ralimetinib -0.017 | [10] -0.058 | [11] 0.024 | [12] 0.079 | [13] -0.018 | [14] 0.103 | [15] 0.02 | [16] 0.009

TMEM87A (UniProt Q8NBN3)
inactive: erlotinib -0.015 | [1] -0.021 | [2] 0.01 | [3] 0.037 | [4] -0.02 | [5] -0.02 | [6] -0.027 | [7] 0.031 | [8] -0.004 | IRAK-1-4 Inhibitor I -0.028 | ibrutinib -0.002 | [9] 0.019 | ralimetinib -0.031 | [10] -0.035 | [11] -0.075 | [12] -0.017 | [13] -0.02 | [14] 0.016 | [15] 0.004 | [16] -0.02

TMEM63A (UniProt O94886)
inactive: erlotinib -0.036 | [1] -0.044 | [2] 0.02 | [3] -0.031 | [4] 0.009 | [5] -0.017 | [6] -0.015 | [7] -0.057 | [8] 0.003 | IRAK-1-4 Inhibitor I -0.005 | ibrutinib 0.017 | [9] 0.035 | ralimetinib 0.012 | [10] -0.069 | [11] -0.012 | [12] 0.014 | [13] -0.016 | [14] -0.024 | [15] 0.014 | [16] 0.023

TNPO1 (UniProt Q92973)
inactive: erlotinib 0.014 | [1] -0.038 | [2] 0.006 | [3] 0.001 | [4] 0.017 | [5] -0.021 | [6] -0.007 | [7] -0.015 | [8] 0.024 | IRAK-1-4 Inhibitor I 0.021 | ibrutinib -0.005 | [9] 0.012 | ralimetinib -0.007 | [10] 0.008 | [11] 0.011 | [12] 0.003 | [13] 0.034 | [14] 0.006 | [15] 0.001 | [16] 0.007

TMEM43 (UniProt Q9BTV4)
inactive: erlotinib 0.019 | [1] -0.041 | [2] -0.002 | [3] 0.006 | [4] -0.014 | [5] -0.02 | [6] -0.069 | [7] -0.001 | [8] 0.015 | IRAK-1-4 Inhibitor I 0.028 | ibrutinib 0.013 | [9] -0.018 | ralimetinib 0.019 | [10] -0.03 | [11] -0.016 | [12] 0.023 | [13] -0.009 | [14] 0.008 | [15] -0.002 | [16] -0.023

TMEM38B (UniProt Q9NVV0)
inactive: erlotinib -0.025 | [1] -0.058 | [2] 0.002 | [3] 0.033 | [4] -0.012 | [5] -0.06 | [6] -0.215 | [7] 0.017 | [8] 0.01 | IRAK-1-4 Inhibitor I 0.056 | ibrutinib -0.015 | [9] 0.005 | ralimetinib 0.007 | [10] -0.065 | [11] 0.054 | [12] -0.009 | [13] -0.102 | [14] -0.005 | [15] 0.001 | [16] -0.057

TOM1L2 (UniProt Q6ZVM7)
inactive: erlotinib -0.024 | [1] -0.103 | [2] 0.009 | [3] 0.045 | [4] -0.122 | [5] 0.036 | [6] 0.002 | [7] -0.02 | [8] -0.013 | IRAK-1-4 Inhibitor I -0.015 | ibrutinib -0.034 | [9] 0 | ralimetinib 0.099 | [10] 0.002 | [11] 0 | [12] -0.051 | [13] -0.01 | [14] 0.006 | [15] -0.069 | [16] -0.039
